Reference: article PMC3897705
Results are given in words; binding and its absence hold for the method and conditions named. In cells and extracts the contact can be indirect. Some results given as binding are weak or reduced against the parent protein; the word gives no strength.

By UniProt entry, the sequences of proteins in these tests, tags left out. Residues count along the entry.
UniProt P25090: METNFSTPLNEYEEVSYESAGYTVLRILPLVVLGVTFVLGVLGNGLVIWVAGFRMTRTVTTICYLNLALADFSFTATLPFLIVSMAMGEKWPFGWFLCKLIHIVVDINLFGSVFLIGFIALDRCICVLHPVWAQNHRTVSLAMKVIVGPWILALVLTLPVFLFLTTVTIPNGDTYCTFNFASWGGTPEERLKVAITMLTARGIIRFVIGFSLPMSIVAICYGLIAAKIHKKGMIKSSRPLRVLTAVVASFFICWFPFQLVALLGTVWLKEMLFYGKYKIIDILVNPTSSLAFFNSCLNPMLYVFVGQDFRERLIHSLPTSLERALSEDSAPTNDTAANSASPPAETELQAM
UniProt P21462: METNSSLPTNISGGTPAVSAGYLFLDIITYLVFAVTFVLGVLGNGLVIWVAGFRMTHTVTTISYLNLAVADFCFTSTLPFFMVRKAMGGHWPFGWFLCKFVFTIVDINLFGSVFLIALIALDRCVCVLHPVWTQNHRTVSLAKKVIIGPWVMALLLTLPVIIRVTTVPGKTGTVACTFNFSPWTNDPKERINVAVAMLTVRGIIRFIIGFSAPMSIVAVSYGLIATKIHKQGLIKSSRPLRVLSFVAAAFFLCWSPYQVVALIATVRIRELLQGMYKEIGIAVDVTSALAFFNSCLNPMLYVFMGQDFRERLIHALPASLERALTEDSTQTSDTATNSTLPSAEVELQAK
UniProt Q03405, residues 23-305: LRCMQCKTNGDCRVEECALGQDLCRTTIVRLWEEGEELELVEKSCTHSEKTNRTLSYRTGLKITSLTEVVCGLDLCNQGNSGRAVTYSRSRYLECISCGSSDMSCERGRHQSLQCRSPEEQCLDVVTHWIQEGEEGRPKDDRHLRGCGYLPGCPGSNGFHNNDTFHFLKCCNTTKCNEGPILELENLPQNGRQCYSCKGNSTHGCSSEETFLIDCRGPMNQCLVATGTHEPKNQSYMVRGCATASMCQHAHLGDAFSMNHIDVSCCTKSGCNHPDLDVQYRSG

What was measured:
Assay in all cases: co-IP; Triton X-100-insoluble residue of the cells solubilized in RIPA buffer; 0.5 mg protein incubated 2 h at 4°C with 30 µg/ml anti-FPR1, anti-FPR3 (rabbit polyclonal) or anti-FPR2 (mouse monoclonal) antibody, protein A-Sepharose; Western blot with anti-uPAR antibodies (R2 or 399); nonimmune immunoglobulins as control
FPR-like2 (FPR3) = target: T1, FPR-like2 (FPR3) (UniProt P25089)
T1 sequence: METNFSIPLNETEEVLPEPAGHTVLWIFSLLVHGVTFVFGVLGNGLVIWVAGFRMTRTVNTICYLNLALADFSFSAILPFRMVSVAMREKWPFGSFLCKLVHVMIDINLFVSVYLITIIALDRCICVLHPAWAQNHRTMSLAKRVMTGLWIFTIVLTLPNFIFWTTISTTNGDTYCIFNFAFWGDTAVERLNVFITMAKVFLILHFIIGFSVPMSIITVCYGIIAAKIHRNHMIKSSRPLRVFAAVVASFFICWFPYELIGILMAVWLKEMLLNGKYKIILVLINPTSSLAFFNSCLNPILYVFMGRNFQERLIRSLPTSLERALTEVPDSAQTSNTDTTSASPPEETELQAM

FPR-like 1 (FPR2) = FPR-like 1 (FPR2) (UniProt P25090)
[1] = target: high-affinity N-formyl-peptide receptor (FPR1), transfected (UniProt P21462)
[2] = target: endogenous FPR1 of HEK-293 cells (human (endogenous in HEK-293)) (UniProt P21462)

binding (FPR-like2 (FPR3)): binds
binding (FPR-like 1 (FPR2)): binds
binding [1]: binds
binding [2]: binds
Substance: urokinase-type plasminogen activator receptor (uPAR) (from UniProt Q03405 23-305)
